From article PMC4026351
No constants are given. Whether binding was seen depends on the method and setting. Some entries that bind do so weakly or less than the wild type. Where a sequence is shown, tags or fusion partners need not be part of it.

Biological target: T1, colicin E3 immunity protein (ImmE3) with a C-terminal His6 tag (E. coli) (UniProt P02984)
T1 sequence: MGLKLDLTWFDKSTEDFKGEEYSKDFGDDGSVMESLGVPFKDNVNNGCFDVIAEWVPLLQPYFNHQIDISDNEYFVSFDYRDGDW
Assay: co-purification by affinity chromatography; colicin co-expressed with its immunity protein carrying a C-terminal His6 tag in BL21(DE3); complex purified by affinity chromatography through the tag (Ni-NTA)

binding: binds
B1: hybrid colicin E2/colicin E3 (protein, UniProt P04419 1-456; P00646 455-551)
chain: MSGGDGRGHNTGAHSTSGNINGGPTGLGVGGGASDGSGWSSENNPWGGGSGSGIHWGGGSGHGNGGGNGNSGGGSGTGGNLSAVAAPVAFGFPALSTPGAGGLAVSISAGALSAAIADIMAALKGPFKFGLWGVALYGVLPSQIAKDDPNMMSKIVTSLPADDITESPVSSLPLDKATVNVNVRVVDDVKDERQNISVVSGVPMSVPVVDAKPTERPGVFTASIPGAPVLNISVNNSTPEVQTLSPGVTNNTDKDVRPAGFTQGGNTRDAVIRFPKDSGHNAVYVSVSDVLSPDQVKQRQDEENRRQQEWDATHPVEAAERNYERARAELNQANEDVARNQERQAKAVQVYNSRKSELDAANKTLADAIAEIKQFNRFAHDPMAGGHRMWQMAGLKAQRAQTDVNNKQAAFDAAAKEKSDADAALSAAQERRKQKENKEKDAKDKLDKESKRNKPGKGFKDYGHDYHPAPKTENIKGLGDLKPGIPKTPKQNGGGKRKRWTGDKGRKIYEWDSQHGELEGYRASDGQHLGSFDPKTGNQLKGPDPKRNIKKYL
